Assay results from PMC4793087.
No constants are given. Whether binding was seen depends on the method and setting. Binding calls can cover weak binding; strength is not graded here.

Target: Lachancea thermotolerans Pds5 (construct M-35-1221-LHHHHHH) (Lachancea thermotolerans)
Assay: crystal structure; co-crystals of LtPds5 with synthetic LtScc1 peptide (121-143); molecular replacement with fragments of the apo structure, 3.6 Å; two further SeMet SAD datasets with SeMet-substituted peptides; both purified

Binder	binding
LTNPSQYLLQDAVTEREVLLVPG [L. thermotolerans Scc1 peptide 121-143]	binds
LTNPSQMLLQDAVTEREVLLVPG (selenomethionine at 127) [L. thermotolerans Scc1 peptide 121-143 (Y127SeMet)]	binds
LTNPSQYMLQDAVTEREVLLVPG (selenomethionine at 128) [L. thermotolerans Scc1 peptide 121-143 (L128SeMet)]	binds
